PubChem BioAssay AID652259 – Drosophila RNAi Screening Center – 2013
Test: 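Knock-downs that push a Wingless-driven reporter up or down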 (primary screen). System: Drosophila clone 8 imaginal disc epithelial cells. Reagent: long dsRNA against Drosophila genes. Conditions: pathway stimulated by co-transfected Wingless expression plasmid. Detection: 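Dual luciferase reads per well after Wingless plasmid stimulation: reporter firefly light and Renilla control light; activity is firefly divided by Renilla, a ratio not deposited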. Reading the numbers: firefly reporter light: higher = more Wg reporter light, before normalisation; Renilla control light: higher = more transfected or surviving cells. Rule for the call: 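Strong candidates differ from their plate mean by at least two out of four per-plate statistical tests; weak candidates meet just one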. Calls: active = candidate regulator (raises or lowers reporter); inactive = not a candidate.
In all, the deposit lists about 22,000 reagents; shown is an unselected part of those that have a named target and a result. Over the whole deposit, 233 (1.1%) got an active call. 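Light values are raw, unnormalised plate reads; the ratio scores behind the reporter calls were not deposited.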 A number with no mark means an inactive call. The numbers tell different reagents against one gene apart. Names joined by + are all predicted targets of the reagent. Not given: the amount of reagent, the time to read-out, the dose of the treatment.

Gene	dsRNA no.	reporter change call, replicate 1	firefly reporter light, replicate 1	firefly reporter light, replicate 2	Renilla control light, replicate 1	Renilla control light, replicate 2
crok	1		3921	9690	1703	3946
crok	2		6.70e5	7.15e5	4.41e5	3.87e5
tej	1		6731		1360	
Pp1-87B	1		11975		2166	
Zip42C.2	1		3853	11077	597	3014
Cpr65Ea	1		1847	8116	1411	2818
ND2 (retired record)	1		19555	6.12e5	12819	2.79e5
Pi4KIIalpha	1		7460		2027	
Pi4KIIalpha	2		12467		2045	
RhoGAP100F	1		2326	2512	856	1016
CG16781	1		13393		12536	
Eip93F	1		3561		1576	
Eip93F	2		34775		6289	
Eip93F	3		7.37e5	7.56e5	5.07e5	3.77e5
CG30110	1		19496		12362	
Cog7	1		12184		4134	
CG31612	1		4103	10167	896	3734
CG31612	2		2282	5595	747	2377
flap	1		14042		9707	
flap	2		7739		3329	
CHKov1	1		14777		8124	
CHKov1	2		17213		8891	
CHKov1	3		22629		16084	
CG8435	1		13164		1544	
Strump	1		6955		2528	
CG9616	1		10208		2133	
CG10470	1		1546	5128	598	2405
CG32432	1		18412		1589	
CG32432	2	Wg reporter activity raised (active)	14150		1676	
CG32432	3		17223		5280	
Rab27	1		6006	6536	1808	2690
PICK1	1		15657		9853	
PICK1	2		2834	7753	1241	3635
CG14564	1		22866		6631	
CG14564	2		8.79e5	8.48e5	4.11e5	5.36e5
CG5254	1		13280		13248	
CG30423	1		17906		9515	
CG31809	1		16979		6982	
Adss	1		2185	5488	1209	1619
Cyfip	1		12003		1872	
CG13566	1		1808	5156	562	1734
Rad23	1		2019	4705	784	1712
CG1894	1		9058		2960	
Bap55	1	Wg reporter activity raised (active)	40768		4133	
parvin	1		18801		9288	
DopEcR	1		3815		1498	
CG34040	1		14624		7367	
CG31546	1		8027		2323	
CG15322	1		15744		5757	
CG33177	1		27355		10155	
alpha-Est10	1		9153		2269	
CG12024	1		17204		4728	
Gr93d	1		3.54e5	3.64e5	1.42e5	1.83e5
qtc	1		10285		4294	
qtc	2		2260	5669	581	1922
Atg18a	1		5336		1700	
TTLL3A	1		1898	8775	889	2795
Atxn7	1		13161		5500	
TH1	1		1904	8892	841	1800
Ldaf1	1		3121	6178	1613	2912
18w	1		13875		2957	
Parg	1		2509	7799	1264	2720
fne	1		12612		6336	
fne	2		5.24e5	5.96e5	2.13e5	2.79e5
Rab9Db + Rab9D + Rab9E	1		3132		1187	
ClC-b	1		4252		1794	
Stim	1		2354	5664	704	2275
CG14883	1		17861		4182	
CG32267	1		5.18e5	4.93e5	1.20e5	1.11e5
HP1e	1		9933		1648	
pico	1		16599		8332	
CG12560	1		2369	7442	792	3565
Osi6	1		13909		4247	
